PubChem BioAssay AID1259308 – NCATS – 2017

Test: 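Genes whose loss raises luciferase production in HEK293 cells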 (primary screen)
System: human HEK293 embryonic kidney cells stably expressing firefly luciferase (HEK-CMV-Luc2-Hygro)
Reagent: single siRNA against human genes, 0.8 pmol siRNA per well
Timing: 72 h
Detection: 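Luciferase light (ONE-Glo) measured on one replicate plate set and viability (CellTiter-Glo) on the other, scaled to a negative control siRNA, with robust z-scores and luciferase per cell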
Reading the numbers: total luciferase, z-score and total luciferase, % of control: higher = more reporter protein produced
Active means: 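An siRNA counts as active if its total luciferase robust z-score exceeds 3; genes with two or more such siRNAs out of three were retested with fresh siRNAs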
Meaning of the calls: active = raised luciferase; inactive = no rise
Here is an unselected part of about 59,000 deposited reagents. About 1,510 of them (2.6%) count as active. 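Calls use total luciferase alone and ignore viability, so some active siRNAs may act by altering cell number.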 A number with no mark means an inactive call. Reagents against one gene are numbered here. Further read-outs or replicates are left out here. Reagent sequences are not shown.

target	siRNA no.	total luciferase, z-score	total luciferase, % of control
FAM221A (family with sequence similarity 221 member A)	1	0.712	96
FAM221A (family with sequence similarity 221 member A)	2	-0.426	73.4
FAM221A (family with sequence similarity 221 member A)	3	-0.261	76.7
AXL (AXL receptor tyrosine kinase)	1	-0.779	66.4
AXL (AXL receptor tyrosine kinase)	2	-0.218	77.6
AXL (AXL receptor tyrosine kinase)	3	-0.292	76.1
CCNH (cyclin H)	1	-0.442	73.1
CCNH (cyclin H)	2	0.517	92.2
CCNH (cyclin H)	3	-0.4	73.9
NABP2 (nucleic acid binding protein 2)	1	-0.472	72.5
NABP2 (nucleic acid binding protein 2)	2	0.55	92.8
NABP2 (nucleic acid binding protein 2)	3	-1.13	59.4
KDM5D (lysine demethylase 5D)	1	-0.628	69.4
KDM5D (lysine demethylase 5D)	2	-0.406	73.8
KDM5D (lysine demethylase 5D)	3	5.73 (active)	196
RPS4Y1 (ribosomal protein S4 Y-linked 1)	1	-2.61	30
RPS4Y1 (ribosomal protein S4 Y-linked 1)	2	1.01	102
RPS4Y1 (ribosomal protein S4 Y-linked 1)	3	4.43 (active)	170
LMOD3 (leiomodin 3)	1	0.354	88.9
LMOD3 (leiomodin 3)	2	-1.09	60.1
LMOD3 (leiomodin 3)	3	0.794	97.7
EPCIP (exosomal polycystin 1 interacting protein)	1	-0.0357	81.2
EPCIP (exosomal polycystin 1 interacting protein)	2	0.775	97.3
EPCIP (exosomal polycystin 1 interacting protein)	3	0.391	89.7
TMOD4 (tropomodulin 4)	1	-1.06	60.9
TMOD4 (tropomodulin 4)	2	-0.346	75
TMOD4 (tropomodulin 4)	3	0.782	97.4
ZFAT (zinc finger and AT-hook domain containing)	1	4.33 (active)	168
ZFAT (zinc finger and AT-hook domain containing)	2	0.0522	82.9
ZFAT (zinc finger and AT-hook domain containing)	3	-0.711	67.8

Entries above marked active:
target	siRNA no.	total luciferase, z-score	total luciferase, % of control
KDM5D (lysine demethylase 5D)	3	5.73 (active)	196
RPS4Y1 (ribosomal protein S4 Y-linked 1)	3	4.43 (active)	170
ZFAT (zinc finger and AT-hook domain containing)	1	4.33 (active)	168

Continued:
target	siRNA no.	total luciferase, z-score	total luciferase, % of control
CHEK2 (checkpoint kinase 2)	1	0.841	98.6
CHEK2 (checkpoint kinase 2)	2	0.961	101
CHEK2 (checkpoint kinase 2)	3	1.51	112
NLRC5 (NLR family CARD domain containing 5)	1	0.243	86.7
NLRC5 (NLR family CARD domain containing 5)	2	-0.105	79.8
NLRC5 (NLR family CARD domain containing 5)	3	0.561	93
PALM2AKAP2 (PALM2 and AKAP2 fusion)	1	-0.355	74.8
PALM2AKAP2 (PALM2 and AKAP2 fusion)	2	-0.169	78.5
PALM2AKAP2 (PALM2 and AKAP2 fusion)	3	0.0107	82.1
PALM2AKAP2 (PALM2 and AKAP2 fusion)	4	-0.362	74.7
PALM2AKAP2 (PALM2 and AKAP2 fusion)	5	0.189	85.6
PALM2AKAP2 (PALM2 and AKAP2 fusion)	6	0.603	93.9
GCM1 (GCM transcription factor 1)	1	1.92	120
GCM1 (GCM transcription factor 1)	2	-0.735	67.3
GCM1 (GCM transcription factor 1)	3	-0.759	66.8
SOX30 (SRY-box transcription factor 30)	1	1.9	120
SOX30 (SRY-box transcription factor 30)	2	0.52	92.2
SOX30 (SRY-box transcription factor 30)	3	2.06	123
MAST3 (microtubule associated serine/threonine kinase 3)	1	1.86	119
MAST3 (microtubule associated serine/threonine kinase 3)	2	-2.01	42
MAST3 (microtubule associated serine/threonine kinase 3)	3	-0.271	76.5
ACTG2 (actin gamma 2, smooth muscle)	1	3.72 (active)	156
ACTG2 (actin gamma 2, smooth muscle)	2	-0.0303	81.3
ACTG2 (actin gamma 2, smooth muscle)	3	-1.15	58.9
NXT2 (nuclear transport factor 2 like export factor 2)	1	0.495	91.7
NXT2 (nuclear transport factor 2 like export factor 2)	2	-1.22	57.6
NXT2 (nuclear transport factor 2 like export factor 2)	3	-0.648	69
CNKSR3 (CNKSR family member 3)	1	0.897	99.7
CNKSR3 (CNKSR family member 3)	2	2.04	122
CNKSR3 (CNKSR family member 3)	3	2.32	128
ZNF7 (zinc finger protein 7)	1	0.277	87.4
ZNF7 (zinc finger protein 7)	2	1.43	110
ZNF7 (zinc finger protein 7)	3	-0.541	71.1
IL36G (interleukin 36 gamma)	1	0.194	85.7
IL36G (interleukin 36 gamma)	2	0.0698	83.3
IL36G (interleukin 36 gamma)	3	-1.26	56.8
ALPI (alkaline phosphatase, intestinal)	1	-0.206	77.8
ALPI (alkaline phosphatase, intestinal)	2	1.08	103
ALPI (alkaline phosphatase, intestinal)	3	-0.987	62.3
HORMAD1 (HORMA domain containing 1)	1	1.81	118
HORMAD1 (HORMA domain containing 1)	2	1.38	109
HORMAD1 (HORMA domain containing 1)	3	-2.91	24.1
OR5D13 (olfactory receptor family 5 subfamily D member 13)	1	0.408	90
OR5D13 (olfactory receptor family 5 subfamily D member 13)	2	-0.0939	80
OR5D13 (olfactory receptor family 5 subfamily D member 13)	3	-0.854	64.9
